Laboratory results from patent publication US10421740B2, “Pesticidally active heterocyclic derivatives with sulphur containing substituents” (SYNGENTA PARTICIPATIONS AG, priority 2016, dated 2019).
Some entries share one result that the patent states for a list of compounds.

Tested on: Aedes aegypti (Yellow Fever Mosquito)
Test: Activity against Aedes aegypti (yellow fever mosquito)
Assay type: in vivo
Settings: 200 ppm in ethanol, dry deposit; adult females; after 48 h and/or 24 h

Row | SMILES | control of Aedes aegypti
1 | CCSc1cc2c(cc1-c1nnc(-c3cc(C(F)(F)F)ccn3)n1C)nc(C(F)(F)F)n2C [Compound A1, 6-ethylsulfanyl-1-methyl-5-[4-methyl-5-[4-(trifluoromethyl)-2-pyridyl]-1,2,4-triazol-3-yl]-2-(trifluoromethyl)benzimidazole] | at least 80%
2 | CCS(=O)(=O)c1cc2c(cc1-c1nnc(-c3cc(C(F)(F)F)ccn3)n1C)nc(C(F)(F)F)n2C [Compound A2, 6-ethylsulfonyl-1-methyl-5-[4-methyl-5-[4-(trifluoromethyl)-2-pyridyl]-1,2,4-triazol-3-yl]-2-(trifluoromethyl)benzimidazole] | at least 80%
